These are yes or no findings as the source states them, for the method shown. Binding seen in cells or lysates may run through a third protein. These calls come from enrichment with a bait or labelling near it, and not all partners need be listed.

The chains behind the UniProt entries cited, without tags or fusion partners.
UniProt Q9Y580: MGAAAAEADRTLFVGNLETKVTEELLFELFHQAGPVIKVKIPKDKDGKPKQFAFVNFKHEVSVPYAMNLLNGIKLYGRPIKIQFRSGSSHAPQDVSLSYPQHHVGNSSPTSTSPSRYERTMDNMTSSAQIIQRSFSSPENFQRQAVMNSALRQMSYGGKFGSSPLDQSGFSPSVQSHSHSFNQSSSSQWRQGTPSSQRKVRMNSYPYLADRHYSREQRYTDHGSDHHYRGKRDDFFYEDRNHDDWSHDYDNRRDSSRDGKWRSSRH
UniProt P62258: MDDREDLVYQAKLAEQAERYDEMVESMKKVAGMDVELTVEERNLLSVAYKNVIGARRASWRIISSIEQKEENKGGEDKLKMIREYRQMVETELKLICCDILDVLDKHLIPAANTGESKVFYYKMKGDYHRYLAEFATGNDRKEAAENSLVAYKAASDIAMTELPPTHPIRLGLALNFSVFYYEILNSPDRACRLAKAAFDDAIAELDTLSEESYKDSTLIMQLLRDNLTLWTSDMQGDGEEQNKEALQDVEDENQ

This is an account of results in article PMC4173157.

This assay addresses GFP-tagged wild-type RBM7 (human) (UniProt Q9Y580). The assay can be described thus: affinity purification with mass spectrometry; GFP or GFP-RBM7 expressed in cells, immunoprecipitation, interactors identified by MS (GFP-RBM7:GFP SILAC ratios).

In the case of “14-3-3ɛ (endogenous, found with GFP-RBM7) (from UniProt P62258 1-255)”, the binding result was “binds”.
